Measurements taken from the supplement of paper PMC10338343.
± gives the standard deviation. Only a part is listed here, and it is no random draw. The uncertainty is large for many entries. The list shows a part of the results.

Columns and labels:
[1] = test system: EfPiwi piRISC loaded with L1MC piRNA (26 nt); test: pre-steady-state target cleavage rate (min^-1); guide: L1MC piRNA 5'p-UAACUAAAUACUAUGCAAGCUGUAGG; higher = faster piRNA-guided slicing of the target
How it was run: (§1)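 With or without 500 nM GTSF1 partner protein, 1 nM active affinity-purified piRISC carrying one synthetic guide was mixed with 0.1 nM transcribed, DNA-blocked target RNA library in HEPES–potassium acetate buffer at 33 °C for 0–8 or 0–960 min. Uncleaved targets were sequenced and normalised to depth and to weakly complementary targets, three trials were pooled, and k3 was capped at 0.0001 min^-1. The pre-steady-state cleavage rate came from a burst-and-steady-state fit.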

[2] = test system: MILI (PIWIL2) piRISC loaded with L1MC piRNA (26 nt); test: pre-steady-state target cleavage rate (min^-1); MIWI and MILI are mouse PIWI proteins and EfPiwi is from a freshwater sponge; tags in brackets are library labels; higher = faster piRNA-guided slicing of the target; details: guide: L1MC piRNA 5'p-UAACUAAAUACUAUGCAAGCUGUAGG
How it was run: as §1

[3] = auxiliary factor: 500 nM Ephydatia muelleri Gtsf1
[4] = auxiliary factor: none (no Gtsf1)
[5] = auxiliary factor: none (no GTSF1)

Sequence | pre-steady-state target cleavage rate [1, 3] | pre-steady-state target cleavage rate [1, 4] | pre-steady-state target cleavage rate [2, 5] | pre-steady-state target cleavage rate ([2]; auxiliary factor: 500 nM mouse GTSF1)
UCCUGGAUGUGCUUGCAAAGUAUUUAGUUA | 0.00905 ± 0.0036 | 0.00172 ± 0.0066 |  | 
UCCUGGAUCAGCUUGCAUAGUAUCUUAGUUA | 0.0248 ± 0.0072 | 0.0132 ± 0.0071 |  | 
UCCUGCUACAGCUUCGCAUAGUAUUUAGUUA | 0.0225 ± 0.0071 | 0.000624 ± 0.011 |  | 
UCCUGCUACAGCUUGCAUAGUACUUUAGUUA | 0.00465 ± 0.0015 | 0.000377 ± 0.015 |  | 
UCCUGGAACAGCUUGCAUAGUCUUUAGUUA | 0.00979 ± 0.0029 | 0.0021 ± 0.0064 |  | 
UCCUGGAACAGCUUGCAUAGUACUUAGUUA | 0.0218 ± 0.0069 | 0.00157 ± 0.0077 |  | 
UCCUGGAUGUUCUUGCAUAGUAUUUAGUUA | 0.173 ± 0.068 | 0.00123 ± 0.011 |  | 
UCCUGGUACAGCAAGCAUAGUAUUUAGUAA | 0.00171 ± 0.0034 | 0.000481 ± 0.013 |  | 
UCCUGGUUCAGCAUGCAUAGUAUUUAGUUA | 0.0347 ± 0.0092 | 0.00336 ± 0.005 |  | 
UCCUGGAUGAACUUGCAUAGUAUUUAGUUA | 0.0179 ± 0.0064 | 0.00149 ± 0.0077 |  | 
UCCUCCUACAGCUUGCAUAGUGAUUUAGUUA | 0.00415 ± 0.0025 | 0.000784 ± 0.0071 |  | 
UCCUGCUACUGCUUGCAUAGUAUUUACUUA | 0.00156 ± 0.0024 | 0.00011 ± 0.056 |  | 
UCCUGGAUCAGCUUGCAUAGUAUUUAGGUUA | 0.00516 ± 0.0024 | 0.00113 ± 0.0093 |  | 
UCCUGGAUGUCCUUGCAUAGUAUUUACGUUA | 0.00179 ± 0.0034 | 0.000563 ± 0.011 |  | 
UCCUGGAUGUGCUUGCAUAGUAUUAAGUUA | 0.00372 ± 0.0032 | 0.00115 ± 0.0088 |  | 
UCCUCCUACAGCUUGCAUUGUAAUUAGUUA | 0.00753 ± 0.0034 | 0.00129 ± 0.006 |  | 
UCCUGGAUGUGCUUGCAUACUAUUUACUUA | 0.000701 ± 0.0075 | 0.000214 ± 0.045 | 0.000894 ± 0.0073 | 
UCCUGGAUGAGCUUGCAUAGUUAUUAGUUA | 0.0028 ± 0.0038 | 0.000448 ± 0.023 |  | 
UCCUGGAACAGCUUGCAUAGUUAUUAGUAA | 0.00454 ± 0.0037 | 0.0003 ± 0.031 | 0.00124 ± 0.0059 | 
UCCUGGAUCAGCUUGCAUAGUUUUUUGUUA | 0.00148 ± 0.0026 | 0.000207 ± 0.019 |  | 
UCCUGGUACAGCUUGCAUAGUAUUUGGUUA | 0.00525 ± 0.002 | 0.000319 ± 0.033 |  | 
UCCUGGUAGAGCUUGCAUAGUAUUUAGUAA | 0.00742 ± 0.0038 | 0.000572 ± 0.018 |  | 
UCCUGGAACAGCUUGCAUAGUAUUUACAAA | 0.00238 ± 0.0019 | 0.000697 ± 0.01 | 0.0014 ± 0.005 | 
UCCUGGAUGUGCUUGCAUAGUAUUAUAGUUA | 0.00369 ± 0.004 | 0.00104 ± 0.01 |  | 
UCCUGGAUGAGCUUGCAUAGUAUUUAGGUUA | 0.0031 ± 0.002 | 0.000395 ± 0.012 |  | 
UCCUGGUACAGACUUGCAUAGUAUUUAGUUA | 0.00211 ± 0.0051 | 0.000474 ± 0.02 |  | 
UCCUGGAUGUCGUUGCAUAGUAAAAUCAAA [g9:g18:cont:t1A] | 0.000146 ± 0.017 | 0.000109 ± 0.066 | 0.00024 ± 0.019 | 
UCCUGGAUGAGCUUGGAUAGUAUUUAGAUA | 0.00144 ± 0.0045 | 0.000307 ± 0.03 | 0.00118 ± 0.0046 | 

Sequence | pre-steady-state target cleavage rate [1, 3] | pre-steady-state target cleavage rate [1, 4] | pre-steady-state target cleavage rate [2, 5] | pre-steady-state target cleavage rate ([2]; auxiliary factor: 500 nM mouse GTSF1)
UCCUGGAUGUGCUUGGAUAGUAUUUUGUUA | 0.000565 ± 0.0056 | 0.000332 ± 0.039 | 0.00222 ± 0.0039 | 
UCCUGGAUGUCCUUGCAUAGUAAUUUAGUUA | 0.000281 ± 0.023 | 0.000276 ± 0.024 |  | 
UCCUGGAACAGCUUGCGAUAGUAUUUAGUUA | 0.00523 ± 0.0018 | 0.000477 ± 0.021 |  | 
UCCUCCAACACCUUGCAUAGUAUUUAGUUA | 0.00954 ± 0.0038 | 0.000647 ± 0.0097 |  | 
UCCUGGAUGAGCUUGCUUACUAUUUAGUUA | 0.00203 ± 0.0022 | 0.00049 ± 0.015 |  | 
UCCUGGAUCAGCUUGCAAAGUAUUAAGUUA | 0.00373 ± 0.0026 | 0.000978 ± 0.011 |  | 
UCCUGCUACAGCUGGCAUAGUAUUUAGUUA | 0.00937 ± 0.0024 | 0.000724 ± 0.009 |  | 0.293 ± 0.019
UCCUGGAUCAGCUUGCAUAGUAAUUUAGUUA | 0.00371 ± 0.0025 | 0.00162 ± 0.0071 |  | 
UCCUGCUACAGCUUGCAUAGUAUUUAGUAUA | 0.00675 ± 0.0019 | 0.000713 ± 0.011 |  | 
UCCUGGUACACGUUGCAUAGUAUUUAGUUA | 0.00176 ± 0.0065 | 0.000192 ± 0.055 |  | 
UCCUGGAACAGCUUGCAUAGUAAUUAGAUA | 0.00318 ± 0.0015 | 0.000276 ± 0.01 | 0.00151 ± 0.0037 | 
UCCUGGAUGAGCUUGCAAUGUAUUUAGUUA | 0.00266 ± 0.0045 | 0.000709 ± 0.016 |  | 
UCCUGGAACAGCUUGCAUAGUAUUUUGAUA | 0.00265 ± 0.0024 | 0.000657 ± 0.012 |  | 
UCCUGGAACAGCUUGCAUACUAUUAAGUUA | 0.00246 ± 0.0024 | 0.000933 ± 0.008 | 0.000614 ± 0.0084 | 
UCCUGCUACAGGCUUGCAUAGUAUUUAGUUA | 0.00977 ± 0.0027 | 0.00113 ± 0.0074 |  | 
UCCUGCAUCAGCUUGCAUAGUAUUUACAAA | 0.00323 ± 0.0016 | 0.000351 ± 0.022 |  | 
UCCUGGUUCAGCUUGCAUAGUAUUUAGAUA | 0.00378 ± 0.002 | 0.000817 ± 0.011 | 0.00307 ± 0.0033 | 
UCCUGGUACAGCUUGCAUAUAUUUAGUUA | 0.0015 ± 0.0039 | 0.00103 ± 0.011 |  | 
UCCUGGAUGUGCUUGCAUAGUAGUUUAGUUA | 0.0051 ± 0.0034 | 0.00262 ± 0.0063 |  | 
UCCUGGAUCAGCUUGCAUUGUAUAUAGUUA | 0.000484 ± 0.011 | < 0.0001 |  | 
UCCUGGAACAGCAUGCAUAGUUUUUAGUUA | 0.00387 ± 0.0016 | 0.000326 ± 0.028 |  | 
UCCUGGUACAGCUUGCUUAGUAUUUAGAAA | 0.00224 ± 0.002 | 0.000678 ± 0.0081 | 0.00175 ± 0.0041 | 
UCCUGGUACAGCUUGCUUAGUAUUUACUUA | 0.00185 ± 0.0042 | 0.000335 ± 0.021 | 0.00257 ± 0.003 | 
UCCUGGUACACCUUGCAUAGUAUUUUGUUA | 0.00266 ± 0.0029 | 0.000462 ± 0.027 |  | 
UCCUGGAACUGCUUGCAUACUAUUUAGUUA | 0.0046 ± 0.0019 | 0.000938 ± 0.0098 | 0.00252 ± 0.0029 | 
UCCUGGUUCUGCUUGCAUAGUAUUUAGUUA | 0.0355 ± 0.011 | 0.00563 ± 0.0047 |  | 
UCCUGGAUCAGCUUGCAUAGUAUUUACUUA | 0.00218 ± 0.0028 | < 0.0001 |  | 

4 records drawn at random from the list so far, as already listed:
Sequence | pre-steady-state target cleavage rate [1, 3] | pre-steady-state target cleavage rate [1, 4] | pre-steady-state target cleavage rate [2, 5] | pre-steady-state target cleavage rate ([2]; auxiliary factor: 500 nM mouse GTSF1)
UCCUGGAUGUCCUUGCAUAGUAAUUUAGUUA | 0.000281 ± 0.023 | 0.000276 ± 0.024 |  | 
UCCUGGAUCAGCUUGCAAAGUAUUAAGUUA | 0.00373 ± 0.0026 | 0.000978 ± 0.011 |  | 
UCCUGGAACUGCUUGCAUACUAUUUAGUUA | 0.0046 ± 0.0019 | 0.000938 ± 0.0098 | 0.00252 ± 0.0029 | 
UCCUGGAUCAGCUUGCAUAGUAAUUUAGUUA | 0.00371 ± 0.0025 | 0.00162 ± 0.0071 |  | 
